PubChem BioAssay AID504804, Drosophila RNAi Screening Center, 2011

Aim: 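Knock-downs shielding fly cells from apoptosis caused by DNA damage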 (primary screen)
Cell system: Drosophila Kc cells
Knock-down reagent: long dsRNA against Drosophila genes, 0.5 µg dsRNA per well
Timing: 96 h (48 h knock-down, then 48 h drug)
Treatment: doxorubicin 5 µg/ml for 48 h, added 48 h after dsRNA
Measured: 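Luminescent ATP counts per replicate, not normalised, reflecting viable cells after 48 h dsRNA knock-down followed by 48 h of 5 µg/ml doxorubicin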
Direction: raw ATP luminescence: higher = more viable cells, protection from doxorubicin
Active means: 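z-score of 2 or more over plate mean in both duplicates, retained only when retests and separate dsRNAs confirm the protection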
In all, the deposit lists about 19,000 reagents; below is a random part of those that have a named target and a result. In the full data, 47 (0.25%) were called active. 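Signals are raw, not normalised; exact z-scores behind calls not deposited; actives needed confirmation, so some wells reaching 2 SD are inactive.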 Entries without a mark were called inactive. Names joined by + are all predicted targets of the reagent.

The opening 10 entries as a preview:
raw ATP luminescence, replicate 1 | raw ATP luminescence, replicate 2 | Gene | dsRNA
2.92e5 | 2.64e5 | CG34288 | DRSC13564
38220 | 82907 | CG2063 | DRSC06811
73087 | 78493 | spo | DRSC11127
69790 | 69370 | CG10147 | DRSC09706
3.50e5 | 3.57e5 | upd1 | DRSC20358
30270 | 31060 | tHMG2 | DRSC16182
34890 | 31453 | CG14014 | DRSC02345
3.64e5 | 3.33e5 | CG7378 | DRSC20041
43960 | 43720 | CG1677 | DRSC18116
48367 | 69693 | Gr59b | DRSC04179

The list itself, from the start:
raw ATP luminescence, replicate 1 | raw ATP luminescence, replicate 2 | Gene | dsRNA
2.92e5 | 2.64e5 | CG34288 | DRSC13564
38220 | 82907 | CG2063 | DRSC06811
73087 | 78493 | spo | DRSC11127
69790 | 69370 | CG10147 | DRSC09706
3.50e5 | 3.57e5 | upd1 | DRSC20358
30270 | 31060 | tHMG2 | DRSC16182
34890 | 31453 | CG14014 | DRSC02345
3.64e5 | 3.33e5 | CG7378 | DRSC20041
43960 | 43720 | CG1677 | DRSC18116
48367 | 69693 | Gr59b | DRSC04179
2.34e5 | 2.37e5 | CG33483 | DRSC14019
55863 | 59567 | Tep4 | DRSC03453
24850 | 30047 | eRF1 | DRSC11779
32360 | 63003 | Dh31 | DRSC02196
61230 | 55780 | Osi6 | DRSC12128
29827 | 29900 | Pdp1 | DRSC08896
21090 | 22557 | Pdp1 | DRSC08897
67360 | 71253 | Pdp1 | DRSC11251
87567 | 85537 | CG8219 | DRSC10971
1.02e5 | 1.08e5 | CR30068 (retired record) | DRSC05477
40380 | 37977 | Oga | DRSC15901
2.81e5 | 3.05e5 | CG44001 + CG33995 | DRSC00853
1.02e5 | 81670 | CG44001 + CG33995 | DRSC02898
44710 | 50357 | Cndp2 | DRSC04873
40250 | 36350 | mRpS18C | DRSC16538
49483 | 53650 | CG6432 | DRSC16039
51383 | 65983 | CG6660 | DRSC16087
48460 | 70777 | CG2852 | DRSC04321
36463 | 62193 | dpa | DRSC07604
54707 | 49830 | bbc | DRSC06958
2.18e5 | 2.52e5 | mus101 | DRSC19388
3.93e5 | 3.16e5 | CG8097 | DRSC20079
68570 | 65720 | shps | DRSC14614
77873 | 23600 | Kots | DRSC16581
2.34e5 | 1.96e5 | Lgr4 | DRSC18969
2.36e5 | 3.48e5 | Lgr4 | DRSC18970
3.88e5 | 2.84e5 | Lgr4 | DRSC19884
2.80e5 | 2.90e5 | sol | DRSC20587
64900 | 63837 | CG8312 | DRSC16406
2.78e5 | 2.77e5 | nrv2 | DRSC00948
1.03e5 | 96417 | nrv2 | DRSC03383
2.22e5 | 2.18e5 | CG3337 | DRSC15478
61367 | 54523 | CG8245 | DRSC04901
46377 | 46250 | Src42A | DRSC04915
44960 | 44957 | pps | DRSC16057
66310 | 65360 | jar | DRSC16974
1.13e5 | 74227 | Ent1 | DRSC00330
94613 | 73910 | nesd | DRSC02099
28803 | 23210 | roq | DRSC10227
3.12e5 | 3.02e5 | DIP1 | DRSC20818
54820 | 52773 | CG10700 | DRSC02096
59573 | 62837 | GluRIB + CG42509 (retired record) | DRSC10258
70747 | 54520 | GluRIB + CG42509 (retired record) | DRSC11177
20863 | 25273 | CG7656 | DRSC10900
38453 | 52997 | Tsp68C | DRSC09295
40117 | 34003 | Plod | DRSC10601
78470 | 75067 | Plod | DRSC10602
57697 | 45000 | ND-B14.5AL | DRSC11795
1.00e5 | 53457 | Polr1F | DRSC02278
65727 | 67067 | CG33169 | DRSC11853
3.49e5 | 3.01e5 | ND2 (retired record) | DRSC21274
55430 | 92110 | cona | DRSC16281
1.26e5 | 75510 | bdl | DRSC00271
1.80e5 | 1.31e5 | sbb | DRSC05723
69450 | 68443 | CG6583 | DRSC02972
43800 | 64440 | CG17855 | DRSC02638
37340 | 43520 | Atx-1 | DRSC18365
35740 | 34553 | akirin | DRSC11000
79777 | 55130 | CG10333 | DRSC02036
43337 | 82533 | CG13138 | DRSC02235
40163 | 36890 | bab1 | DRSC08379
38593 | 38980 | CG6683 | DRSC10694
46890 | 80547 | CG34430 | DRSC06499
26720 | 41433 | CG8852 | DRSC00719
85567 | 73907 | CG4716 | DRSC06884
54897 | 68640 | spz6 | DRSC04533
89257 | 54300 | CG10527 | DRSC04078
61817 | 59537 | Desat2 | DRSC15919
34730 | 66930 | Zip42C.2 | DRSC05004
35510 | 45127 | Usp47 | DRSC11313
91977 | 78373 | chif | DRSC03508
2.10e5 | 2.34e5 | spri | DRSC17846
3.75e5 | 3.12e5 | spri | DRSC17984
3.74e5 | 3.61e5 | spri | DRSC17985
3.69e5 | 3.34e5 | spri | DRSC17986
3.00e5 | 2.68e5 | spri | DRSC17988
2.82e5 | 2.60e5 | spri | DRSC17989
48437 | 62390 | l(3)neo38 | DRSC14946
51047 | 51870 | l(3)neo38 | DRSC16138
33880 | 35477 | CG6409 | DRSC10630
1.44e5 | 1.45e5 | CG33234 | DRSC07994
37473 | 31387 | wrm1 | DRSC11007
68717 | 60437 | cv-2 | DRSC03861
52523 | 64250 | cv-2 | DRSC04261
84950 | 96260 | CG8066 | DRSC16374
33703 | 1.19e5 | CG9447 | DRSC05008
79573 | 70463 | CG3335 | DRSC10358
47070 | 52960 | Hexo2 | DRSC18671
26860 | 31387 | Shaw | DRSC00433
25237 | 33013 | Shaw | DRSC00788
48260 | 61093 | CG14668 | DRSC12254
2.62e5 | 2.57e5 | CG43394 | DRSC01013
44440 | 40420 | Tom40 | DRSC18796
62507 | 24520 | CG9631 | DRSC14137
56263 | 51457 | CG30259 | DRSC04164
44183 | 46927 | CG30259 | DRSC04165
37680 | 40580 | MAPk-Ak2 | DRSC18678
